Measured data: PubChem BioAssay AID1259308 (NCATS, 2017)
In all, the deposit lists about 59,000 reagents; this is a random part of them. Of all reagents, about 1,510 (2.6%) were called active. 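Calls use total luciferase alone and ignore viability, so some active siRNAs may act by altering cell number.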 Further read-outs or replicates are left out here.

- Purpose: 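Knock-downs that increase output of a recombinant reporter protein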 (primary screen)
- Cells: human HEK293 embryonic kidney cells stably expressing firefly luciferase (HEK-CMV-Luc2-Hygro)
- Reagent: single siRNA against human genes, 0.8 pmol siRNA per well
- Time to read-out: 72 h
- Measurement: 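Luciferase light (ONE-Glo) measured on one replicate plate set and viability (CellTiter-Glo) on the other, scaled to a negative control siRNA, with robust z-scores and luciferase per cell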
- Direction: total luciferase, z-score and total luciferase, % of control: higher = more reporter protein produced
- Active means: 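An siRNA counts as active if its total luciferase robust z-score exceeds 3; genes with two or more such siRNAs out of three were retested with fresh siRNAs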
- Calls: active = raised luciferase; inactive = no rise

Depletion of HMGB4 [SID160732430] came out at: total luciferase, z-score -0.402; total luciferase, % of control 73.9; inactive.
For HMGB4 [SID160756638], the entry reads total luciferase, z-score -0.518; total luciferase, % of control 71.6; inactive.
Depletion of HMGB4 [SID160756639] resulted in: total luciferase, z-score 0.887; total luciferase, % of control 99.5; inactive.
Silencing of ADPRM [SID160745447] gave: total luciferase, z-score 0.229; total luciferase, % of control 86.4; inactive.
Knock-down of ADPRM [SID160745448] gave: total luciferase, z-score -1.65; total luciferase, % of control 49; inactive.
ADPRM [SID160745449] scored total luciferase, z-score 0.433; total luciferase, % of control 90.5; inactive.
For NDUFC2 [SID160777890] the deposit lists total luciferase, z-score 0.268; total luciferase, % of control 87.2; inactive.
NDUFC2 [SID160777892] gave total luciferase, z-score -0.453; total luciferase, % of control 72.9; inactive.
NDUFC2 [SID160777893] gave total luciferase, z-score 0.0211; total luciferase, % of control 82.3; inactive.
Knock-down of EN1 [SID160760305] came out at: total luciferase, z-score -1.36; total luciferase, % of control 54.9; inactive.
Depletion of EN1 [SID160760316] resulted in: total luciferase, z-score 1.79; total luciferase, % of control 117; inactive.
With knock-down of EN1 [SID160760326], the screen gave total luciferase, z-score 2.67; total luciferase, % of control 135; inactive.

Single entries from the list:
Entry of ADPRM [SID160745448] under “total luciferase, z-score”: -1.65
HMGB4 [SID160732430], total luciferase, z-score = -0.402
